Data as given in patent US20250122255A1.
These are yes or no findings as the source states them, for the method shown. In cells and extracts the contact can be indirect. Binding can be weak; no strength is given.

B1: CT45 peptide … (SEQ ID NO:1) (peptide)
peptide: AVDPETVFK
B2: CT45 peptide QGPTAVRK (SEQ ID NO:5) (peptide)
peptide: QGPTAVRK
B3: CT45 peptide … (SEQ ID NO:2) (peptide)
peptide: GVQGPTAVR
B4: CT45 peptide … (SEQ ID NO:3) (peptide)
peptide: GVQGPTAVRK
B5: CT45 peptide … (SEQ ID NO:4) (peptide)
peptide: VQGPTAVRK
B6: CT45 peptide … (SEQ ID NO:32) (peptide)
peptide: EGVQGPTAVR
B7: CT45 peptide … (SEQ ID NO:33) (peptide)
peptide: VAVDPETVFKR

Target: HLA-I A*03:01 (human)
Test: HLA-I immunopeptidomics: W6/32 pulldown from 59M cells, peptide elution, LC-MS/MS

binding, binds:
B1
B2
B3
B4
B5

Target: HLA-I A*11:01 (human)
Test: as above

binding, binds:
B1
B2
B3
B5

Target: HLA-I A*03:01 (human)
Test: HLA-I immunopeptidomics: W6/32 pulldown from DAC-treated SKOV3ip1 cells, LC-MS/MS

binding, binds:
B6
B3
B7

Target: HLA-I A*68:01 (human)
Test: as above

binding, binds:
B6
B3
B7
